Source: article PMC4133388
Results are given in words; binding and its absence hold for the method and conditions named. Binding seen in cells or lysates may run through a third protein. Some entries that bind do so weakly or less than the wild type.

The chains behind the UniProt entries cited, without tags or fusion partners. Where a name states a change or a piece, a line headed by the entry shows the natural chain unless it says otherwise. A line that says so, or that is headed by a name, gives the form on record, which may keep a tag or linker. Residues count along the entry.
UniProt P11309: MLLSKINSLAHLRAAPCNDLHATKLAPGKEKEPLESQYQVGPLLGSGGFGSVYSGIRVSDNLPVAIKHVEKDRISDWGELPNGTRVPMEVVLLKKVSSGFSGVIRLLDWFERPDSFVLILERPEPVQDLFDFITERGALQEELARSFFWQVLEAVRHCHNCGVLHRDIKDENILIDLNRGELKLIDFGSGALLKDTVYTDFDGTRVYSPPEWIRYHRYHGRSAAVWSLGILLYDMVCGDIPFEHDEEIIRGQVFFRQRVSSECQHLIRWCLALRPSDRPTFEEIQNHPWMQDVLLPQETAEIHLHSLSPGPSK
UniProt P03204: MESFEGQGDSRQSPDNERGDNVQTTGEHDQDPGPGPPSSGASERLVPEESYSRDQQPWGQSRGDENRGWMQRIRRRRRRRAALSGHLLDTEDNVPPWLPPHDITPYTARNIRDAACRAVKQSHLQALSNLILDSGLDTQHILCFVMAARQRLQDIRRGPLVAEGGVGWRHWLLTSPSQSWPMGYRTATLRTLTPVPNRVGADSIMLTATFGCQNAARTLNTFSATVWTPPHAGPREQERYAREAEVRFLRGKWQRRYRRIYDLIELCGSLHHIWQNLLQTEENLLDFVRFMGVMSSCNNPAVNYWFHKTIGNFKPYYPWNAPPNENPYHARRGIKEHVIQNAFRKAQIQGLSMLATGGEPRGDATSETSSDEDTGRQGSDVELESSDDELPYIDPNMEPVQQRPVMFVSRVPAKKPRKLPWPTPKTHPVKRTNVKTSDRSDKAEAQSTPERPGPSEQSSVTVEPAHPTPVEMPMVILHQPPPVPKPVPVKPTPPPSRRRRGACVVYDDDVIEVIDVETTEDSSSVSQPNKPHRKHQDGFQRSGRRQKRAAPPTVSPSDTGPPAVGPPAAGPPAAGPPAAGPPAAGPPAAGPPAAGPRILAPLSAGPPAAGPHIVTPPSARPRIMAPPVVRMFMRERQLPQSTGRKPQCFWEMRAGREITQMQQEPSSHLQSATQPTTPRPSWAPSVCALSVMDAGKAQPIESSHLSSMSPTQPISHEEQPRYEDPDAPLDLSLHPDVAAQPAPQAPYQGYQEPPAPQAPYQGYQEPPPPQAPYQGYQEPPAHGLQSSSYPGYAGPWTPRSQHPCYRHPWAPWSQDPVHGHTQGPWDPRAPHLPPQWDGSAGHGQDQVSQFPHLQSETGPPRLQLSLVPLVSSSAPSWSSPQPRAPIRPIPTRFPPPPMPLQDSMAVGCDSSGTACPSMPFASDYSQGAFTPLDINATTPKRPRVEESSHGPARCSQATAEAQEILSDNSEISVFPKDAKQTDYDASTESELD
Myc-tagged EBNA3C residues 1–365 (Epstein-Barr virus (strain B95-8)): residues 1-365 of P03204
GST-EBNA3C residues 130–159 (Epstein-Barr virus (strain B95-8)): residues 130-159 of P03204
UniProt P38936: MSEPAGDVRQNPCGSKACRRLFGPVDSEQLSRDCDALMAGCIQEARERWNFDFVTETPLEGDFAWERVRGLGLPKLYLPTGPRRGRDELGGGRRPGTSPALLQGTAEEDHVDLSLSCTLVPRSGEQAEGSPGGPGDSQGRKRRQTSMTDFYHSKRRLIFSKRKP

Columns and labels:
GST-Pim-1 (human) [1] = molecular target: GST-Pim-1 (human) (UniProt P11309); assay: pull-down; BJAB, BJAB7/BJAB10 and LCL1 lysates (RIPA buffer) incubated with GST control or GST-Pim-1 beads; washed with Binding Buffer (1× PBS, 0.1% NP-40, 0.5 mM DTT, 10% glycerol); EBNA3C detected by Western blot with A10; only the target purified
[2] = molecular target: endogenous Pim-1 (human (endogenous in BJAB7, BJAB10, LCL1, LCL2)) (UniProt P11309); assay: co-IP; 50 million BJAB, BJAB7, BJAB10, LCL1, LCL2 cells lysed; IP with Pim-1 specific antibody; endogenous EBNA3C and Pim-1 detected by Western blot
[3] = molecular target: Flag-tagged EBNA3C (Epstein-Barr virus (strain B95-8)) (UniProt P03204); assay: co-IP; HEK-293 cells co-transfected by electroporation, harvested 36 hrs post-transfection, RIPA buffer lysates (0.5% NP-40, 10 mM Tris pH 7.5, 2 mM EDTA, 150 mM NaCl); IP overnight at 4°C with A10, anti-Flag (M2), anti-Myc (9E10) or GFP antibody; Western blot
[4] = molecular target: untagged-EBNA3C (Epstein-Barr virus (strain B95-8)) (UniProt P03204); assay: as above
GST-Pim-1 (human) [5] = molecular target: GST-Pim-1 (human) (UniProt P11309); assay: pull-down; S^35-radiolabeled in vitro translated EBNA3C full length and fragments, pre-cleared with GST-beads, incubated with GST control or GST-Pim-1 beads; washed with Binding Buffer; SDS-PAGE and phosphoimager; only the target purified
Flag-tagged p21 (human) = Flag-tagged p21 (human) (UniProt P38936); assay: co-IP; HEK-293 cells co-transfected by electroporation, harvested 36 hrs post-transfection, RIPA buffer lysates (0.5% NP-40, 10 mM Tris pH 7.5, 2 mM EDTA, 150 mM NaCl); IP overnight at 4°C with A10, anti-Flag (M2), anti-Myc (9E10) or GFP antibody; Western blot
[6] = molecular target: GST-EBNA3C residues 130–159 (Epstein-Barr virus (strain B95-8)) (UniProt P03204); assay: pull-down; S^35-radiolabeled in vitro translated Myc-Pim-1 incubated with GST control or GST-EBNA3C truncated mutant beads; SDS-PAGE and phosphoimager; only the target purified
[7] = molecular target: Myc-tagged EBNA3C residues 1–365 (Epstein-Barr virus (strain B95-8)) (UniProt P03204); assay: co-IP; HEK-293 cells co-transfected by electroporation, harvested 36 hrs post-transfection, RIPA buffer lysates (0.5% NP-40, 10 mM Tris pH 7.5, 2 mM EDTA, 150 mM NaCl); IP overnight at 4°C with A10, anti-Flag (M2), anti-Myc (9E10) or GFP antibody; Western blot
[8] = molecular target: Myc-tagged full length EBNA3C (residues 1–992) (Epstein-Barr virus (strain B95-8)) (UniProt P03204); assay: as above

**Q.** Which binding (GST-Pim-1 (human) [1]) does the source give for “EBNA3C of EBV transformed lymphoblastoid cell lines (LCL1, LCL2) (from UniProt P03204 1-992)” here?
**A.** The binding was “binds”.

**Q.** What about the binding [2] of the same substance?
**A.** The binding was “binds”.

**Q.** Which results are given for “Myc-tagged Pim-1 (from UniProt P11309 1-313) (enzyme)”?
**A.** binding [3]: binds; binding [4]: binds

**Q.** Which binding (GST-Pim-1 (human) [1]) does the source give for “EBNA3C stably expressed in BJAB cells (BJAB7, BJAB10) (from UniProt P03204 1-992)” here?
**A.** The binding was “binds”.

**Q.** And the binding [2]?
**A.** The binding was “binds”.

**Q.** For “in vitro translated EBNA3C residues 100–200 (from UniProt P03204 100-200) (domain or fragment)”, which binding (GST-Pim-1 (human) [5]) is on record?
**A.** Its binding is “binds”.

**Q.** How did the binding (Flag-tagged p21 (human)) turn out when “Myc-tagged full length EBNA3C (residues 1–992) (from UniProt P03204 1-992)” was run?
**A.** The binding was “binds”.

**Q.** “in vitro translated EBNA3C residues 1–159 (from UniProt P03204 1-159) (domain or fragment)” was tested. Which binding (GST-Pim-1 (human) [5]) did it give?
**A.** Its binding is “binds”.

**Q.** Which binding [6] does the source give for “in vitro translated full length Pim-1 (Myc-Pim-1 construct) (from UniProt P11309 1-313) (enzyme)” here?
**A.** The binding was “binds”.

**Q.** With “in vitro translated EBNA3C residues 130–300 (from UniProt P03204 130-300) (domain or fragment)” as the substance, how does the binding (GST-Pim-1 (human) [5]) read?
**A.** The binding was “binds”.

**Q.** For “GFP-tagged Pim-1 (from UniProt P11309 1-313) (enzyme)”, which binding [7] is on record?
**A.** Its binding is “binds”.

**Q.** What about the binding [8] of the same substance?
**A.** Its binding is “binds”.

**Q.** Which binding (GST-Pim-1 (human) [5]) does the source give for “in vitro translated EBNA3C residues 1–250 (from UniProt P03204 1-250) (domain or fragment)” here?
**A.** The binding was “binds”.
